These are yes or no findings as the source states them, for the method shown. Binding seen in cells or lysates may run through a third protein. Some binding calls cover weakened binding; strength is not graded here.
Target: NF-κB RelA (p65) (human (endogenous in THP-1)) (UniProt Q04206)
Test: co-IP; IP with p65 antibody (D14E12) on protein G beads, overnight at 4 °C, washed three times in PBS; blot with anti-p52; nuclear extracts of untreated Mϕ macrophages and of TAMs (treated with tumor-conditioned medium); control normal rabbit IgG; n = 3

By UniProt entry, the sequences of proteins in these tests, tags left out.
UniProt Q04206: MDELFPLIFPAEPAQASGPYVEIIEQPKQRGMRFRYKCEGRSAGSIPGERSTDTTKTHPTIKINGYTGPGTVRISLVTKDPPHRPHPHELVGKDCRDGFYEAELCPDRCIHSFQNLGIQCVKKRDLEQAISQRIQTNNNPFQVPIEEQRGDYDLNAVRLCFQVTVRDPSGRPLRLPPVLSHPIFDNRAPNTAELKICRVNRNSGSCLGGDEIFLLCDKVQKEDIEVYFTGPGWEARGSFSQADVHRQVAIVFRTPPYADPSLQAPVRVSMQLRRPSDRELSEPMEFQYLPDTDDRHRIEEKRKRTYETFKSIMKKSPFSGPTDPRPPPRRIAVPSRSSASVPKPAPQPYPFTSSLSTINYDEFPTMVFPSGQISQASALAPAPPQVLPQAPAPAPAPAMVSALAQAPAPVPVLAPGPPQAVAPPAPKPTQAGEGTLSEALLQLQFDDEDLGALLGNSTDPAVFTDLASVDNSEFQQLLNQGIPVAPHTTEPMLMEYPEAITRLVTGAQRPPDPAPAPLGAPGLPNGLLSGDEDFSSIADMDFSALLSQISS

B1: NF-κB p52 (protein, UniProt Q00653 1-454)
chain: MESCYNPGLDGIIEYDDFKLNSSIVEPKEPAPETADGPYLVIVEQPKQRGFRFRYGCEGPSHGGLPGASSEKGRKTYPTVKICNYEGPAKIEVDLVTHSDPPRAHAHSLVGKQCSELGICAVSVGPKDMTAQFNNLGVLHVTKKNMMGTMIQKLQRQRLRSRPQGLTEAEQRELEQEAKELKKVMDLSIVRLRFSAFLRASDGSFSLPLKPVISQPIHDSKSPGASNLKISRMDKTAGSVRGGDEVYLLCDKVQKDDIEVRFYEDDENGWQAFGDFSPTDVHKQYAIVFRTPPYHKMKIERPVTVFLQLKRKRGGDVSDSKQFTYYPLVEDKEEVQRKRRKALPTFSQPFGGGSHMGGGSGGAAGGYGGAGGGGSLGFFPSSLAYSPYQSGAGPMGCYPGGGGGAQMAATVPSRDSGEEAAEPSAPSRTPQCEPQAPEMLQRAREYNARLFGLA
For B1, the binding was “binds”.

Reference: PMC9324337
